# Source: PMC11018898
# These are yes or no findings as the source states them, for the method shown. Binding calls can cover weak binding; strength is not graded here. Where a sequence is shown, tags or fusion partners need not be part of it.
# B1: alkaline phosphatase-tagged Sema3D (ligand, UniProt Q9W6G6 42-764)
# chain: MKESLPRVKLGYKDLIHSRSVVPFTGSSEGQHFQTVLLDEERSRLLLGAKDHVYLLDPDNINKHPKKLSWPASRDRVEMCILAGKNPLTECANFIRVLHSYNRTHVYACGTGAFHPTCAFLEIKGHKEDRWLLLHSNTMESGRMKCPFDPNQPFASVLTDQYLYAGTASDFLGKDSTFTRSLGPPPHQQYIRTDISEDYWINEGKFISAHPISDTYNPDDDKIYFFFREASRDGSTTDKSVLSRVARICRNDVGGLRSLTNKWTTFLKARLVCSIPGPDGVDTHFDELQDIFLLPSRDEKNPMVYGVFTTTSSIFKGSAVCVYTMEDIRAAFNGPYAHKEGPDHRWVEYEGRIPYPRPGTCPSRTYDPHIKTTKDFPDEVISFIRLHPLMYQSVHPMTGRPIFTRINTEYRLTQIIVDRVAAEDGQYAVMFLGTDMGSVLKVVSITQENWSSEEIILEELQVFKNPSPILNMEVSSKQQQLFVGGSDGLVQVSLHRCQIYGQGCAECCLARDPYCAWDGTQCSRYIPASKRRARRQDIKHGDPSSHCWDTEDVLGRNVEEKVLYGVESNSSFLECVSKSQQALIRWFVLKPGVDHRQEIKPDERVLITDRGLLIRWLQRGDAGSYFCTSQEHRFTRTLLHVSLHILDRGQINAHQPAIRESSENPAVTEPRQRYKDYLRMLSGPARSLDEYCETMWHREKKQKQKGKWKHVQELRKSRNRRHH
# Target: Plexin B3 (zebrafish)
# Test: alkaline phosphatase-tagged ligand binding to transfected cells; supernatant of AP-Sema3 transfected HEK293 cells applied to HEK293 cells transfected with pAG-Plexin B3 and/or pAG-Nrp1a, 1 h at room temperature; cells fixed, heated at 65°C for 90 min, stained with BCIP/NBT
binder,measurement,value
B1,binding,binds
